Assay results published in patent US12233115B2 (Extend Biosciences, Inc., priority 2022, dated 2025).

Experiment: general procedure: Fmoc solid-phase peptide synthesis; Ramage resin (tricyclic amide linker)
Conditions: conjugation step, UPLC

Substance: H-Ser-Val-Ser-Glu-Ile-Gln-Leu-Met-His-Asn-Leu-Gly-Lys-His-Leu-Asn-Ser-Met-Glu-Arg-Val-Glu-Trp-Leu-Arg-Lys-Lys-Leu-Gln-Asp-Val-His-Asn-Phe-Cys(succinimido-propionylamino-PEG36-propionyl-aminopropyl-25-hydroxy-Vitamin D)-NH2
- final HPLC purity (acetate salt): 90.8%
- final HPLC purity (carbonate salt): 80.05%
